Assay results from US20120189633A1 (KOLLTAN PHARMACEUTICALS, published 2012).
Results are given in words; binding and its absence hold for the method and conditions named. Some binding calls cover weakened binding; strength is not graded here.

Protein sequences, listed by entry. Tags and fused reporters are not part of them. Residues count along the entry.
UniProt P10721, residues 26-524: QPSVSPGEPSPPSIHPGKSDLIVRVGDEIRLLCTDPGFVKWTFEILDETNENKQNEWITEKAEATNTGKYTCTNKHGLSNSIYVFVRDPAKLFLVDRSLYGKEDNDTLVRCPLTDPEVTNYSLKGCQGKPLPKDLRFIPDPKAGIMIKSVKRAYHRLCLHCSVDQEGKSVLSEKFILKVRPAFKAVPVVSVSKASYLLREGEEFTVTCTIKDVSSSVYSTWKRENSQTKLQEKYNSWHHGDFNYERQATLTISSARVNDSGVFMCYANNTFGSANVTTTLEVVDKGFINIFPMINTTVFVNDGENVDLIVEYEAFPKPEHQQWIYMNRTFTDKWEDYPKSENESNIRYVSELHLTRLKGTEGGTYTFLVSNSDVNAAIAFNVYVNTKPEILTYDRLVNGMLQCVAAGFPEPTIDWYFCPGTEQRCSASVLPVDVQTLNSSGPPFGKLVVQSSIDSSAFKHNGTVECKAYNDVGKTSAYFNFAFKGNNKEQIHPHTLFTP

How the values were obtained:
[1] = target: KIT antigen containing the entire extracellular domain (D1-D5), glycosylated (UniProt P10721); assay: solid phase ELISA, untreated (glycosylated) KIT ECD antigen
[2] = target: KIT antigen containing the entire extracellular domain (D1-D5), glycosylated (UniProt P10721); assay: solid phase ELISA on coated glycosylated KIT ECD antigen [panel C]
[3] = target: de-glycosylated KIT antigen containing the entire extracellular domain (PNGase F-treated) (UniProt P10721); assay: solid phase ELISA, PNGase F-treated KIT ECD antigen
[4] = target: de-glycosylated KIT antigen containing the entire extracellular domain (PNGase F-treated) (UniProt P10721); assay: solid phase ELISA on coated PNGase F-treated KIT ECD antigen [panel C]

Measured: binding

B1: antibody 37M (antibody, V domains shown)
VH: QVQLKQSGAELVRPGASVKLSCKASGYTFTDYYINWVKQRPGQGLEWIARIYPGSGNTYYNEKFKGKATLTAEKSSSTAYMQLSSLTSEDSAVYFCARGVYYFDYWGQGTTLTVSS
VL: DIVMTQSQKFMSTSVGDRVSVTCKASQNVRTNVAWYQQKPGQSPKALIYSASYRYSGVPDRFTGSGSGTDFTLTISNVQSEDLADYFCQQYNSYPRTFGGGTKLEIKR
binds: all assays above
